Source: publication doi:10.1101/2024.01.10.574961
Results are given in words; binding and its absence hold for the method and conditions named. In cells and extracts the contact can be indirect. Some results given as binding are weak or reduced against the parent protein; the word gives no strength. Where a sequence is shown, tags or fusion partners need not be part of it.

Experiments:
Tea1-GFP (S. pombe) = target: T1, Tea1-GFP (S. pombe) (UniProt P87061); test: co-IP
T1 sequence: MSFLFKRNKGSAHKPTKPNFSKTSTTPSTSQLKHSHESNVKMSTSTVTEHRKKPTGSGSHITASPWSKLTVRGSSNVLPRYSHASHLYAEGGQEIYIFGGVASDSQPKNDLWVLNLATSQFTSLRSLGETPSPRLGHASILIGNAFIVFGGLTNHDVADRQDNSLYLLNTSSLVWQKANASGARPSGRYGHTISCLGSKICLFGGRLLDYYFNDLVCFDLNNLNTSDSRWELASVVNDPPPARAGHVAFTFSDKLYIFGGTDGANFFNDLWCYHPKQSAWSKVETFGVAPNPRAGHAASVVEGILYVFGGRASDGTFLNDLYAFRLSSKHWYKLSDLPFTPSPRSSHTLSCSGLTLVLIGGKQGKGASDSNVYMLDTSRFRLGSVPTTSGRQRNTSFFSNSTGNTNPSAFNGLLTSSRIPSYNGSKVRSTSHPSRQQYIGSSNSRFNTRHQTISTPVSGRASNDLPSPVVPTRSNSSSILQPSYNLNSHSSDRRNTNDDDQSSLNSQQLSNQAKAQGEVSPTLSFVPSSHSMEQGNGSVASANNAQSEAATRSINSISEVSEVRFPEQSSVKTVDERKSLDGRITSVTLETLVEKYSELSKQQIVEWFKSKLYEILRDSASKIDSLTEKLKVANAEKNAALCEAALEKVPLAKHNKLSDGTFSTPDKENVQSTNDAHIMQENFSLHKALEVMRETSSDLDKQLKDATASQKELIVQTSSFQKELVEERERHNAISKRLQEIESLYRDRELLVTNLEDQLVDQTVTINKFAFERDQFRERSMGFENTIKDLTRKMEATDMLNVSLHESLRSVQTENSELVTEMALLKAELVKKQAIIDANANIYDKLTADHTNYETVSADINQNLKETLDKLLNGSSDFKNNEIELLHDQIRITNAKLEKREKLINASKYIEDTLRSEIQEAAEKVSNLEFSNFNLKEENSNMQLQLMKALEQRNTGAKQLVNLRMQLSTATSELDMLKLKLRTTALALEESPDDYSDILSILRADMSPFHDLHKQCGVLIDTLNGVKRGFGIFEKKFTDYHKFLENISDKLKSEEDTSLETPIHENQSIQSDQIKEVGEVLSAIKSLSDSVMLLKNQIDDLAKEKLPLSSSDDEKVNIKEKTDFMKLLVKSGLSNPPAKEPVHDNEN

Tea4-GFP (S. pombe) = target: T2, Tea4-GFP (S. pombe) (UniProt O60132); test: co-IP
T2 sequence: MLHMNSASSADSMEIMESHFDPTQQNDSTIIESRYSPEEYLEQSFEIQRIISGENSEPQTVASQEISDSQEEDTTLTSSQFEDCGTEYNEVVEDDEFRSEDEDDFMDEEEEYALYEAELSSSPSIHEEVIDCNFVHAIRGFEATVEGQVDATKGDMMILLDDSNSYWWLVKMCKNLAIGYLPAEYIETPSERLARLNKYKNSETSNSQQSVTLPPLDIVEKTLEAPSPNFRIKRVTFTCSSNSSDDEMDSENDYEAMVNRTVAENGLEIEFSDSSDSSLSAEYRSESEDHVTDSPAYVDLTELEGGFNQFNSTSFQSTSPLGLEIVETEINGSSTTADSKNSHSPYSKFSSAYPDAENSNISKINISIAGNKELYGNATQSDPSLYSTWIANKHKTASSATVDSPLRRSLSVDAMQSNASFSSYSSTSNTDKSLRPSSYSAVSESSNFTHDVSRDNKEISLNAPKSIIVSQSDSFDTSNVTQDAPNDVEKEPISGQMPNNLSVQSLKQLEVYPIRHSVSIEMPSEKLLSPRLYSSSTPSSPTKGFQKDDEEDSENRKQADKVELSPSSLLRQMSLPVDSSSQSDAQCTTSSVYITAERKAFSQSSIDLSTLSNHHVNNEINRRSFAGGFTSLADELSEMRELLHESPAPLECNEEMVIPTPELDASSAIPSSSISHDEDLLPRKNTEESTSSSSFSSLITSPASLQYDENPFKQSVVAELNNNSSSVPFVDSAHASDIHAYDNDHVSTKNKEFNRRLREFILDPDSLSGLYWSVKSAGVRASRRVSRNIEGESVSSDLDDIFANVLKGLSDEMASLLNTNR

GST-Tea4 (S. pombe) = target: T3, GST-Tea4 (S. pombe) (UniProt O60132); test: pull-down
T3 sequence: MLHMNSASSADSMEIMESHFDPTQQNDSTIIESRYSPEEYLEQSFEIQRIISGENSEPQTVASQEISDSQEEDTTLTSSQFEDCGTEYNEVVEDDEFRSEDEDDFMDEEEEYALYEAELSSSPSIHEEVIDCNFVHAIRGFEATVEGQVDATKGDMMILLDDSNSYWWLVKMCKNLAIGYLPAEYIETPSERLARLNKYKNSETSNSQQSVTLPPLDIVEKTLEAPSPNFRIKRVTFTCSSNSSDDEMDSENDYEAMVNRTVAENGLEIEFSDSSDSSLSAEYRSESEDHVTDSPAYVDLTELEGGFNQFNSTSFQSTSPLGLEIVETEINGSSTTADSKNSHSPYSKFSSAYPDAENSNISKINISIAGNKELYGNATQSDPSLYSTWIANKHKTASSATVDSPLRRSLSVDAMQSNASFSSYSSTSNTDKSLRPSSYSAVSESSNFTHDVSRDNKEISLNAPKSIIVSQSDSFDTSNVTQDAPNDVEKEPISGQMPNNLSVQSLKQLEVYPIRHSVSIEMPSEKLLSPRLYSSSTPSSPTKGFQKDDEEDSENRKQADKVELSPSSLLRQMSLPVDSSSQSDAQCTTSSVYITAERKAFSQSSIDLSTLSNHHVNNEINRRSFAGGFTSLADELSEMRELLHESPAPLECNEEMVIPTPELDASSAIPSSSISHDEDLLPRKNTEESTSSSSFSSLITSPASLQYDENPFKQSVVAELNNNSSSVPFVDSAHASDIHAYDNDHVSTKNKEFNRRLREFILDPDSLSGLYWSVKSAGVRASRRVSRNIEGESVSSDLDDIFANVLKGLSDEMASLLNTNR

GST-Rgf1 (S. pombe) = target: T4, GST-Rgf1 (S. pombe) (UniProt Q9Y7U6); test: pull-down
T4 sequence: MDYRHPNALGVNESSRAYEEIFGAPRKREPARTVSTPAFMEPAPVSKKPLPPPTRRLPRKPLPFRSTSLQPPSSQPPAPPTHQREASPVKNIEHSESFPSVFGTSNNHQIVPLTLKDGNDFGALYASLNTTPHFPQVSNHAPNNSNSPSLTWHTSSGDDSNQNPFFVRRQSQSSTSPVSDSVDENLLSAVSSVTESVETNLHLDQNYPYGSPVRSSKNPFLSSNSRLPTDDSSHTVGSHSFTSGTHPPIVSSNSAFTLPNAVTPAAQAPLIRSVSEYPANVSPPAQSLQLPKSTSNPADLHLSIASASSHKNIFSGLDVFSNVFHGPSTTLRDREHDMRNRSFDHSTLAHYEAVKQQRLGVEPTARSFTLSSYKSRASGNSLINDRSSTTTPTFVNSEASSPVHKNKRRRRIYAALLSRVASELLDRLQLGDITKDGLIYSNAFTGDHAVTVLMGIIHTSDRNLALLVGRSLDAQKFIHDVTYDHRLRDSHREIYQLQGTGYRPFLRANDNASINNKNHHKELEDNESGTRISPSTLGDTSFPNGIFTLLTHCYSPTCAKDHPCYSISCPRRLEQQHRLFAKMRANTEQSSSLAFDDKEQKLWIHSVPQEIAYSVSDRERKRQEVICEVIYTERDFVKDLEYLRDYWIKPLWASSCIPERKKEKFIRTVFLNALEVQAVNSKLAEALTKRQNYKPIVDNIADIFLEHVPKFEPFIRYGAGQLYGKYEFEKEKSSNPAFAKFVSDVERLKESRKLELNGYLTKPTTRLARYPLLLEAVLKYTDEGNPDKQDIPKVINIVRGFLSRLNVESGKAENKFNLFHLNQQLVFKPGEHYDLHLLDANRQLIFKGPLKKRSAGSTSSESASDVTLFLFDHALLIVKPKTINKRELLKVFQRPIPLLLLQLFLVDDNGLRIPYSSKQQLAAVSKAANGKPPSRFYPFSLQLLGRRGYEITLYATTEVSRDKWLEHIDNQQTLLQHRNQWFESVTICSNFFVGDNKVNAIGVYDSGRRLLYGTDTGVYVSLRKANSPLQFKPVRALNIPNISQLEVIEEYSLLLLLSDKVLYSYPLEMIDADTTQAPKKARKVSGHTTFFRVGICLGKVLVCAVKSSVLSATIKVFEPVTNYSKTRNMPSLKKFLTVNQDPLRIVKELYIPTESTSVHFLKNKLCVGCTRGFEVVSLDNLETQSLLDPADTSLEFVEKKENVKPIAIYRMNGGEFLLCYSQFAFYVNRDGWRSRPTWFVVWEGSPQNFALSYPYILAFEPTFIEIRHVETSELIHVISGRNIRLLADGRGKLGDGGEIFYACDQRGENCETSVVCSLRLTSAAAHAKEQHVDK

Binder	binding (Tea1-GFP (S. pombe))	binding (Tea4-GFP (S. pombe))	binding (GST-Tea4 (S. pombe))	binding (GST-Rgf1 (S. pombe))
Rgf1-HA (protein, UniProt Q9Y7U6 1-1334) MDYRHPNALGVNESSRAYEEIFGAPRKREPARTVSTPAFMEPAPVSKKPLPPPTRRLPRKPLPFRSTSLQPPSSQPPAPPTHQREASPVKNIEHSESFPSVFGTSNNHQIVPLTLKDGNDFGALYASLNTTPHFPQVSNHAPNNSNSPSLTWHTSSGDDSNQNPFFVRRQSQSSTSPVSDSVDENLLSAVSSVTESVETNLHLDQNYPYGSPVRSSKNPFLSSNSRLPTDDSSHTVGSHSFTSGTHPPIVSSNSAFTLPNAVTPAAQAPLIRSVSEYPANVSPPAQSLQLPKSTSNPADLHLSIASASSHKNIFSGLDVFSNVFHGPSTTLRDREHDMRNRSFDHSTLAHYEAVKQQRLGVEPTARSFTLSSYKSRASGNSLINDRSSTTTPTFVNSEASSPVHKNKRRRRIYAALLSRVASELLDRLQLGDITKDGLIYSNAFTGDHAVTVLMGIIHTSDRNLALLVGRSLDAQKFIHDVTYDHRLRDSHREIYQLQGTGYRPFLRANDNASINNKNHHKELEDNESGTRISPSTLGDTSFPNGIFTLLTHCYSPTCAKDHPCYSISCPRRLEQQHRLFAKMRANTEQSSSLAFDDKEQKLWIHSVPQEIAYSVSDRERKRQEVICEVIYTERDFVKDLEYLRDYWIKPLWASSCIPERKKEKFIRTVFLNALEVQAVNSKLAEALTKRQNYKPIVDNIADIFLEHVPKFEPFIRYGAGQLYGKYEFEKEKSSNPAFAKFVSDVERLKESRKLELNGYLTKPTTRLARYPLLLEAVLKYTDEGNPDKQDIPKVINIVRGFLSRLNVESGKAENKFNLFHLNQQLVFKPGEHYDLHLLDANRQLIFKGPLKKRSAGSTSSESASDVTLFLFDHALLIVKPKTINKRELLKVFQRPIPLLLLQLFLVDDNGLRIPYSSKQQLAAVSKAANGKPPSRFYPFSLQLLGRRGYEITLYATTEVSRDKWLEHIDNQQTLLQHRNQWFESVTICSNFFVGDNKVNAIGVYDSGRRLLYGTDTGVYVSLRKANSPLQFKPVRALNIPNISQLEVIEEYSLLLLLSDKVLYSYPLEMIDADTTQAPKKARKVSGHTTFFRVGICLGKVLVCAVKSSVLSATIKVFEPVTNYSKTRNMPSLKKFLTVNQDPLRIVKELYIPTESTSVHFLKNKLCVGCTRGFEVVSLDNLETQSLLDPADTSLEFVEKKENVKPIAIYRMNGGEFLLCYSQFAFYVNRDGWRSRPTWFVVWEGSPQNFALSYPYILAFEPTFIEIRHVETSELIHVISGRNIRLLADGRGKLGDGGEIFYACDQRGENCETSVVCSLRLTSAAAHAKEQHVDK	no binding	binds	binds	–
Tea4-GFP (protein, UniProt O60132 1-821) MLHMNSASSADSMEIMESHFDPTQQNDSTIIESRYSPEEYLEQSFEIQRIISGENSEPQTVASQEISDSQEEDTTLTSSQFEDCGTEYNEVVEDDEFRSEDEDDFMDEEEEYALYEAELSSSPSIHEEVIDCNFVHAIRGFEATVEGQVDATKGDMMILLDDSNSYWWLVKMCKNLAIGYLPAEYIETPSERLARLNKYKNSETSNSQQSVTLPPLDIVEKTLEAPSPNFRIKRVTFTCSSNSSDDEMDSENDYEAMVNRTVAENGLEIEFSDSSDSSLSAEYRSESEDHVTDSPAYVDLTELEGGFNQFNSTSFQSTSPLGLEIVETEINGSSTTADSKNSHSPYSKFSSAYPDAENSNISKINISIAGNKELYGNATQSDPSLYSTWIANKHKTASSATVDSPLRRSLSVDAMQSNASFSSYSSTSNTDKSLRPSSYSAVSESSNFTHDVSRDNKEISLNAPKSIIVSQSDSFDTSNVTQDAPNDVEKEPISGQMPNNLSVQSLKQLEVYPIRHSVSIEMPSEKLLSPRLYSSSTPSSPTKGFQKDDEEDSENRKQADKVELSPSSLLRQMSLPVDSSSQSDAQCTTSSVYITAERKAFSQSSIDLSTLSNHHVNNEINRRSFAGGFTSLADELSEMRELLHESPAPLECNEEMVIPTPELDASSAIPSSSISHDEDLLPRKNTEESTSSSSFSSLITSPASLQYDENPFKQSVVAELNNNSSSVPFVDSAHASDIHAYDNDHVSTKNKEFNRRLREFILDPDSLSGLYWSVKSAGVRASRRVSRNIEGESVSSDLDDIFANVLKGLSDEMASLLNTNR	–	–	–	binds
